40 targets from the supplement of paper PMC10849652 can be followed below.

Protein sequences, listed by entry. Tags and fused reporters are not part of them. Lines headed by an entry give the natural chain unless they say otherwise; changes in a name come on top.
UniProt Q14919: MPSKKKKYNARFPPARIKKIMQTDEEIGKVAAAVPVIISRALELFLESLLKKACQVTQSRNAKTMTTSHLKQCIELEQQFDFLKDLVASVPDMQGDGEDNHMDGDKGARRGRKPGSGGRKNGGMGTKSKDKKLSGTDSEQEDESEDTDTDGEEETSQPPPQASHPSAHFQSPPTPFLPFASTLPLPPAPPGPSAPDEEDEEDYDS
UniProt Q9H410: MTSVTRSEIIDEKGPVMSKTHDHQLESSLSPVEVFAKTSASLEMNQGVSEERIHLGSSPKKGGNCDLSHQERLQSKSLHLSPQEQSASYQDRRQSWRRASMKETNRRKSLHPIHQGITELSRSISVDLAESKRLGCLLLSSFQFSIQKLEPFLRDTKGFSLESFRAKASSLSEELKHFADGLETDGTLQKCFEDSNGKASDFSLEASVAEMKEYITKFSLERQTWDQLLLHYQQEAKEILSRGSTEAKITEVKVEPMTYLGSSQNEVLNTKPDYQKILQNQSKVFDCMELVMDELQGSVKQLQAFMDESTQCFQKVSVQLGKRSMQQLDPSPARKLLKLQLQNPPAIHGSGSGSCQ
UniProt O95620: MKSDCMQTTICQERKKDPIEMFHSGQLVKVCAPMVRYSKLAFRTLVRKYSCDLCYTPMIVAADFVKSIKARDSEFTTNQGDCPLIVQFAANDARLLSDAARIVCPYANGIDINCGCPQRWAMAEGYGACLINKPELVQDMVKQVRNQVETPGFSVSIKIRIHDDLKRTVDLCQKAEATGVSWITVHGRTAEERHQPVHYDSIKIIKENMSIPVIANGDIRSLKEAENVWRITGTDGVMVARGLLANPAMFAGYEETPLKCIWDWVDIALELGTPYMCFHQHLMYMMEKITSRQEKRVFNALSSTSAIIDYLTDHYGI
UniProt Q15029: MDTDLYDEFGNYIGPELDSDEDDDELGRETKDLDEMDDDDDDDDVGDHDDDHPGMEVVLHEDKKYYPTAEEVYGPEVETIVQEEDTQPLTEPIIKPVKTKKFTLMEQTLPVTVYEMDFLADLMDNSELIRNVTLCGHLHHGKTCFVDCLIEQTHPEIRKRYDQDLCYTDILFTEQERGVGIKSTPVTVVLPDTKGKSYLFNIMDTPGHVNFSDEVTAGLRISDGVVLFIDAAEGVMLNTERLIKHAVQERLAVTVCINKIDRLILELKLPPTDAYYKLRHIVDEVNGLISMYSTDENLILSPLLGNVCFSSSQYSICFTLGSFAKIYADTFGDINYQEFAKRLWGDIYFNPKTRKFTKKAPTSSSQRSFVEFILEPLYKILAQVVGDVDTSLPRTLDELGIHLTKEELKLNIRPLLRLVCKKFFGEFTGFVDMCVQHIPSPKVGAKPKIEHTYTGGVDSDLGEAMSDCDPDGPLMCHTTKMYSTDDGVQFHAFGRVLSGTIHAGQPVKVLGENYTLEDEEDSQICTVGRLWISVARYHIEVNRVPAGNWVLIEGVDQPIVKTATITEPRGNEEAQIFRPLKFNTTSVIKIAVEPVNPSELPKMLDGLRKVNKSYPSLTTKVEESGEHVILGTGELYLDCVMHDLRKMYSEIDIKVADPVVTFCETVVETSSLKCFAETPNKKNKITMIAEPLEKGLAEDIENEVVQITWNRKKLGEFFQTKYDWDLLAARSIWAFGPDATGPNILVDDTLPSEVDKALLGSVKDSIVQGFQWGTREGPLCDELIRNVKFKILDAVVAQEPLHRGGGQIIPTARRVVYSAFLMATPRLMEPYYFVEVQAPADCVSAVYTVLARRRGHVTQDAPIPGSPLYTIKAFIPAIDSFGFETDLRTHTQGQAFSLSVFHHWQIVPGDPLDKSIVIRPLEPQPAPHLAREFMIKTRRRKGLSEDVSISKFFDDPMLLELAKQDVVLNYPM
EEF1AKMT2, A0A494BZY7, UniProt A0A494BZY7, whole entry, looked up: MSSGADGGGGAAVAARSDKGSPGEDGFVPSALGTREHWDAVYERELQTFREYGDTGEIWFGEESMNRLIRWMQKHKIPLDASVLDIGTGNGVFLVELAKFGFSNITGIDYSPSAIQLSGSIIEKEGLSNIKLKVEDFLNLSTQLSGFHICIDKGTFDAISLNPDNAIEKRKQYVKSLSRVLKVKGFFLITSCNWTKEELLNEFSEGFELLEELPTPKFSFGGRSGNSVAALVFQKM
UniProt Q92611: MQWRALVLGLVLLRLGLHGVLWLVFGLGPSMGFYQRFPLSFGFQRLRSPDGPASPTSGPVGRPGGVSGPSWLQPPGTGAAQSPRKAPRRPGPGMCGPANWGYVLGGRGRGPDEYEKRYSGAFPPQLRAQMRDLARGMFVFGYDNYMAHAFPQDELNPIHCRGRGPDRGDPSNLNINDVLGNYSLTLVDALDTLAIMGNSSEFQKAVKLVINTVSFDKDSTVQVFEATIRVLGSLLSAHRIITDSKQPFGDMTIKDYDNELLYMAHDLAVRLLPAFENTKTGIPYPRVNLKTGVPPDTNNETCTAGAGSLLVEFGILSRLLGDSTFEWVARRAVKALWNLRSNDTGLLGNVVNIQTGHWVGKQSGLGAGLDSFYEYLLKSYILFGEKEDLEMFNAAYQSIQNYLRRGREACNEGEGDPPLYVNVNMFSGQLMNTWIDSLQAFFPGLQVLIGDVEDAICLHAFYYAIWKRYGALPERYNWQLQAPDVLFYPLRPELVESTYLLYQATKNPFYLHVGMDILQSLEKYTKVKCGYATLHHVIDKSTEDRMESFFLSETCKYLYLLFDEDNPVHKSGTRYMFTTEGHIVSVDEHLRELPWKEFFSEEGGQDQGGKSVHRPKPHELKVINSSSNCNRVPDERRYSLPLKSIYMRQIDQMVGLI
UniProt Q8WWZ3: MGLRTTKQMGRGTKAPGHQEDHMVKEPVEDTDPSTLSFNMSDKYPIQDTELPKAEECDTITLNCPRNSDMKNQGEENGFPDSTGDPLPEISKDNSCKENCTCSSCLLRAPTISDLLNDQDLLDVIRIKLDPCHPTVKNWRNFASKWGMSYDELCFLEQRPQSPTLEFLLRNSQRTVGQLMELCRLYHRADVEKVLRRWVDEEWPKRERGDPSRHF
UniProt P23919: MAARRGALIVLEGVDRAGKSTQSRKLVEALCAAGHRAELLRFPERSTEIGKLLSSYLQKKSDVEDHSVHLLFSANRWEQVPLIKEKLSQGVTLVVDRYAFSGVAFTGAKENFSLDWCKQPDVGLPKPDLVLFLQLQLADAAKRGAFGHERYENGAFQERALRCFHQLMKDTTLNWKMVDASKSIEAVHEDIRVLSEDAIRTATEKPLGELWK
UniProt Q96FJ2, whole entry, looked up: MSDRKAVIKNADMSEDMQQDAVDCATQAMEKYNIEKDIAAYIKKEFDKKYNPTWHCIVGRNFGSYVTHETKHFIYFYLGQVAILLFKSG
UniProt Q9BTV6: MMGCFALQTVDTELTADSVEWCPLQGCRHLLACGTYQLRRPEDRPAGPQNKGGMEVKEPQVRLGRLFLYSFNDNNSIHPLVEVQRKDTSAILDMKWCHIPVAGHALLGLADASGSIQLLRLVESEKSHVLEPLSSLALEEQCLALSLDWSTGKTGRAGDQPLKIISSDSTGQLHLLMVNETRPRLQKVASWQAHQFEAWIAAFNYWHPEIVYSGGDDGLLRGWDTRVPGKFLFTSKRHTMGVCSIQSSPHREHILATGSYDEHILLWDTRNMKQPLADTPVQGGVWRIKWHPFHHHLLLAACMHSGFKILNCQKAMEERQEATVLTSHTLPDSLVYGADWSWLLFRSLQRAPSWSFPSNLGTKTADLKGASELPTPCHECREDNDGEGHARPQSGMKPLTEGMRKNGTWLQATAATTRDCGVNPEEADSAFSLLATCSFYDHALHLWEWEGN
UniProt Q13011: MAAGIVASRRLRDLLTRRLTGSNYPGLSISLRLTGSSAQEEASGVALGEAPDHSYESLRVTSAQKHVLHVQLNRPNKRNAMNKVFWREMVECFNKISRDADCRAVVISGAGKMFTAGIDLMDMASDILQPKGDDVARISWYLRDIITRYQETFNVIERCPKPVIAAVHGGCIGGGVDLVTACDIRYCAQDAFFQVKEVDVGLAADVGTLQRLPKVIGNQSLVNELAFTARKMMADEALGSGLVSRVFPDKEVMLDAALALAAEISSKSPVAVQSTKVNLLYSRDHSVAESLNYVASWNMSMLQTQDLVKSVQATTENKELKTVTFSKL
UniProt Q9BVJ7: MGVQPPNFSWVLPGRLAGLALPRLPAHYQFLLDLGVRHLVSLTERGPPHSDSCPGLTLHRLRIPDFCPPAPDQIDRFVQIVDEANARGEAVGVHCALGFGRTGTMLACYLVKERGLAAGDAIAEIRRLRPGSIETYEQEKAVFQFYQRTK
UniProt Q9NP97, whole entry, looked up: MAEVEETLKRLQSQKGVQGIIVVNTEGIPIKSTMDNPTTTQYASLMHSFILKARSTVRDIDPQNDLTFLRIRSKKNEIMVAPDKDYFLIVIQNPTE
UniProt Q86TI2: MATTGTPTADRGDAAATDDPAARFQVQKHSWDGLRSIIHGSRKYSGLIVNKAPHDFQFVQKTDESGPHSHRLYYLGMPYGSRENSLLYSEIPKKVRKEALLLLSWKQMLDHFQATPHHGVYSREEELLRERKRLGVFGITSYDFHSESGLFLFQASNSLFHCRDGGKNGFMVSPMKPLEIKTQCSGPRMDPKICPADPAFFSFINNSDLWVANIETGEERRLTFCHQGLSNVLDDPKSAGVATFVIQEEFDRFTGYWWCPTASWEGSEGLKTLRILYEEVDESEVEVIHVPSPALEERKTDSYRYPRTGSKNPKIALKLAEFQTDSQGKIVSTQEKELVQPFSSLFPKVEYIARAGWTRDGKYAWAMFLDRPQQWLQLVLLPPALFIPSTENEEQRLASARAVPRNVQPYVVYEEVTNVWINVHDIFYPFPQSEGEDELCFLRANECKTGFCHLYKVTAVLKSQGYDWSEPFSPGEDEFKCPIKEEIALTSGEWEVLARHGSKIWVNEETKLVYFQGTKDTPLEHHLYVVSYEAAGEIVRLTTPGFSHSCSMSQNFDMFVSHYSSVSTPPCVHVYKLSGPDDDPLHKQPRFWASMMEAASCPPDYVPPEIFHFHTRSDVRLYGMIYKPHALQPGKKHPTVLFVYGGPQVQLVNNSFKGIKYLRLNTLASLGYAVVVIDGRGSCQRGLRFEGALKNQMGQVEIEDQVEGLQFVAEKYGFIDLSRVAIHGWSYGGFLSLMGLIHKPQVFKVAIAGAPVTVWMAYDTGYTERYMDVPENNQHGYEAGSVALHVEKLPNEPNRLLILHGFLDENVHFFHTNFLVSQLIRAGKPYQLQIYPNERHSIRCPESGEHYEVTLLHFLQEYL
UniProt P24534: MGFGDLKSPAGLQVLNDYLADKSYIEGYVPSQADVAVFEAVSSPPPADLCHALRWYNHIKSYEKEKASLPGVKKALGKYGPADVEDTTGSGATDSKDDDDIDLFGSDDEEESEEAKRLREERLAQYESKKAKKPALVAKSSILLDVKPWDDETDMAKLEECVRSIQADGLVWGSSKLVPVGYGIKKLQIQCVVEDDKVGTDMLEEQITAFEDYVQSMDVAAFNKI
UniProt Q9H8V3: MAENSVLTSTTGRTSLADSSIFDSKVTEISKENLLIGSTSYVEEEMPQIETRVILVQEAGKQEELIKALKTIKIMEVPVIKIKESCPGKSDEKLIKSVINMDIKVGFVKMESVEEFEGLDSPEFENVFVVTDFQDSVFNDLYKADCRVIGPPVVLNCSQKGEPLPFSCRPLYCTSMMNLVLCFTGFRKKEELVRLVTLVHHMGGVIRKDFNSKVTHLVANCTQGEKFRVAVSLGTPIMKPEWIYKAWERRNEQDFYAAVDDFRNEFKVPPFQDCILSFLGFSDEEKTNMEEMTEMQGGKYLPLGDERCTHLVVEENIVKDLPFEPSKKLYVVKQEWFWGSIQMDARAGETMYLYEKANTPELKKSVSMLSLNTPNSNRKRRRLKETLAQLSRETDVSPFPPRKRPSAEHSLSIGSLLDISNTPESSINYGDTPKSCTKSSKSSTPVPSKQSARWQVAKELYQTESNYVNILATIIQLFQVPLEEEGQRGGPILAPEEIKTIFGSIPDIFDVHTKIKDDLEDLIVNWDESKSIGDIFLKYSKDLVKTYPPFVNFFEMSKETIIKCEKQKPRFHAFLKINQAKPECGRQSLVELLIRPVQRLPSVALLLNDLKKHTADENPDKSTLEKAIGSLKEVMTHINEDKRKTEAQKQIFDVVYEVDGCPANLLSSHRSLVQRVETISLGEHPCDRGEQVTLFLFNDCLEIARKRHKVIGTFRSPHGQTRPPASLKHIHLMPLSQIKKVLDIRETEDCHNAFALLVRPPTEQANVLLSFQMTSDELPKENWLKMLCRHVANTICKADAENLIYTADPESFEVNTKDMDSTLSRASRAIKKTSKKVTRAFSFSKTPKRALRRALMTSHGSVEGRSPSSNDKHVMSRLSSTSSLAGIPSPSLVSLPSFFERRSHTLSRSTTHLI
UniProt Q99848: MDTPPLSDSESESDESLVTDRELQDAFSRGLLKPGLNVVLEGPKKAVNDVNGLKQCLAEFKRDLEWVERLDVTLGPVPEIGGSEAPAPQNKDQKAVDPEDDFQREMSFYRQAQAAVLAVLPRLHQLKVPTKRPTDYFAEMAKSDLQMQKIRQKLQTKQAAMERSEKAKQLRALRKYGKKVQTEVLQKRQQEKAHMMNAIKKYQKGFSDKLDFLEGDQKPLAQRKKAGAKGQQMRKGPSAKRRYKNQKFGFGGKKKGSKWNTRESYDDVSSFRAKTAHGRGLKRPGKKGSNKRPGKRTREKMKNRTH

This is one part of the list.

Compound in the assay: CC(C)(O)CC(=O)NCCn1ccc2ncnc(Nc3ccc(Oc4cccc(C(F)(F)F)c4)c(Cl)c3)c21
Put plainly: log2 fold change, soluble protein after heating vs DMSO (PISA); higher = thermal stabilisation; K562 lysate, 10 uM; active = over 0.2 and 3.5 SD of the protein, either way, in both replicates (recomputed). In outline:
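Dounce homogenisation of K562 pellets in PBS pH 7.4 with 1 mM MgCl2 produced a crude extract, used at 1 mg/mL protein. Exposure to 10 μM compound lasted 30 min, and aliquots were then heated for 3 min across 48°C-58°C, pooled and brought to 0.5% NP-40 at 4°C. The supernatant after 21,000xg for 90 min was quantified by TMTpro 16plex LC-MS/MS with channel sums equalised. Duplicate values are given as log-two fold change in thermal stability relative to solvent controls.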
Consider EIF1B (UniProt O60739), for which the log2 fold change was inactive: -0.016. To EDF1 (UniProt O60869) belongs inactive: -0.031; to DRAP1 isoform 2 (UniProt Q14919), inactive: 0.015. As to E2F4 (UniProt Q16254), the log2 fold change was inactive: 0.002. EFHD2 (UniProt Q96C19): the log2 fold change is inactive: 0.009.

Take DPP8 (UniProt Q6V1X1): the log2 fold change is inactive: -0.069.

Turning to DSN1 (UniProt Q9H410), the log2 fold change is inactive: 0.001.

For DUS4L (UniProt O95620), the log2 fold change was inactive: 0.04. As for EEF1E1 (UniProt O43324), the figure is inactive: -0.023.

Consider DYM (UniProt Q7RTS9), for which the log2 fold change is inactive: -0.041. As for EFTUD2 (UniProt Q15029), the figure is inactive: 0.016; as for EIF2A (UniProt Q9BY44), inactive: -0.018; as for EEF1AKMT2, A0A494BZY7, inactive: -0.059.

Consider DPY19L1, A0A1B0GW05, for which the log2 fold change was inactive: 0.

Consider EDEM1 (UniProt Q92611), for which the log2 fold change is inactive: -0.121. As for DPYSL2 (UniProt Q16555), the figure is inactive: -0.024; as for DUS3L (UniProt Q96G46), inactive: -0.034; as for DSCC1 (UniProt Q9BVC3), inactive: -0.058.

As to EHBP1 isoform 2 (UniProt Q8NDI1), the log2 fold change is inactive: -0.047. As for EDARADD (UniProt Q8WWZ3), the figure is inactive: -0.071; as for EFHD1 (UniProt Q9BUP0), inactive: -0.044; as for DTYMK (UniProt P23919), inactive: -0.015. To DYNLL2 (UniProt Q96FJ2) belongs inactive: -0.031; to DPH7 (UniProt Q9BTV6), inactive: -0.055. To ECH1 (UniProt Q13011) belongs inactive: -0.036; to DUSP23 (UniProt Q9BVJ7), inactive: -0.084. Consider DYNLRB1 (UniProt Q9NP97), for which the log2 fold change was inactive: -0.031.

Consider DPP9 isoform 2 (UniProt Q86TI2), for which the log2 fold change is inactive: 0.016.

As for DPP7 (UniProt Q9UHL4), the log2 fold change is inactive: -0.019. As for EEF1D isoform 2 (UniProt P29692), the figure is inactive: -0.032; as for EEF1B2 (UniProt P24534), inactive: 0.001; as for DUT (UniProt P33316), inactive: 0.002. With EED, A0A5F9ZI63, the log2 fold change was inactive: -0.039.

Consider DPH6 (UniProt Q7L8W6), for which the log2 fold change was inactive: 0.001. As for ECT2 (UniProt Q9H8V3), the log2 fold change was inactive: 0.023. As for DUSP3 (UniProt P51452), the figure is inactive: -0.021. As to DYNC1H1 (UniProt Q14204), the log2 fold change is inactive: 0.003. For EIF1AD (UniProt Q8N9N8), the log2 fold change was inactive: -0.04. As for ECI2 (UniProt O75521), the figure is inactive: -0.049. To EBNA1BP2 (UniProt Q99848) belongs inactive: -0.036.
